Our source for the binding values is paper PMC5788634.

Amino acid sequences for entries named in this document (tags omitted). Residues count along the entry.
UniProt P19338: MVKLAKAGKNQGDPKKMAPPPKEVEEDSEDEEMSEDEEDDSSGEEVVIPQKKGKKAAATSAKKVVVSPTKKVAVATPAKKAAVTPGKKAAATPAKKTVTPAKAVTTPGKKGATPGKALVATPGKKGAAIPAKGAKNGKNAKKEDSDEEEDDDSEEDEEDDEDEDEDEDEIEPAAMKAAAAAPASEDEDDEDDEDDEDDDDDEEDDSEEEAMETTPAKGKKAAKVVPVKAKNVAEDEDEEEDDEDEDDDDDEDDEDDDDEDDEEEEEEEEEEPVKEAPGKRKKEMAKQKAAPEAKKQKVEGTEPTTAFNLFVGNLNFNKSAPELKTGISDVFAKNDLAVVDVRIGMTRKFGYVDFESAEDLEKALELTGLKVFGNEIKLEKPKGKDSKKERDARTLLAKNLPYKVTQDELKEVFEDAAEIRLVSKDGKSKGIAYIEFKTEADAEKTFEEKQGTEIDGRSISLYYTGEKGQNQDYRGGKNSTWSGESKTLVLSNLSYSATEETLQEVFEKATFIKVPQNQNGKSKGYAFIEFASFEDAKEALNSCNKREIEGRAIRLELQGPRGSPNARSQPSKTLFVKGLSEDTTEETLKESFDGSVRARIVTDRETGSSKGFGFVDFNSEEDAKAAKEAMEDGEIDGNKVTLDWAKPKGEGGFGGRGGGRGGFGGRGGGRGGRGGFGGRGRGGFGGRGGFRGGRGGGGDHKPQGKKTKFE
UniProt P05106, residues 27-788: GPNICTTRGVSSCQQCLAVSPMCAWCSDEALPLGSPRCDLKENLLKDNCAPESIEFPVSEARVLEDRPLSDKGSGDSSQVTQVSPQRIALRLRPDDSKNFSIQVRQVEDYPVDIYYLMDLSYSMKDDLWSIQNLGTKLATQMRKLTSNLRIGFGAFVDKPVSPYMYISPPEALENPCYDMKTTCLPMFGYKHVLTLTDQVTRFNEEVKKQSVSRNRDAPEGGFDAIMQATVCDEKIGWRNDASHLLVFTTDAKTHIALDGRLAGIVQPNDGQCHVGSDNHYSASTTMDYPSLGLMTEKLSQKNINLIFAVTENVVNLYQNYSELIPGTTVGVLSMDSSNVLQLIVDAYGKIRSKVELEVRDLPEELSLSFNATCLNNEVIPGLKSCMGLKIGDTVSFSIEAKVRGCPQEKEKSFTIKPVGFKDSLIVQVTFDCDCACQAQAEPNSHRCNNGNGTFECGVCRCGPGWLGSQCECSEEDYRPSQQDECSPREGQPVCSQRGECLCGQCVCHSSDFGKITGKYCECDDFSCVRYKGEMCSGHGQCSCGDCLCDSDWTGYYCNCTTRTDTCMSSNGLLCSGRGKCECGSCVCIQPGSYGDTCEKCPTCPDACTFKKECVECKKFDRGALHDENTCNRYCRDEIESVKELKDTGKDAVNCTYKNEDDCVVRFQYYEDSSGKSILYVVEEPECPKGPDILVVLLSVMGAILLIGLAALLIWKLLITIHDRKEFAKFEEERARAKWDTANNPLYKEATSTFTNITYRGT

No constants are given. Whether binding was seen depends on the method and setting. For some of these results: In cells and extracts the contact can be indirect. Some results given as binding are weak or reduced against the parent protein; the word gives no strength. Where a sequence is shown, tags or fusion partners need not be part of it.

For experiment [1], the target named is T1, Recombinant human kallistatin with a his-tag (human) (UniProt P29622).
T1 sequence: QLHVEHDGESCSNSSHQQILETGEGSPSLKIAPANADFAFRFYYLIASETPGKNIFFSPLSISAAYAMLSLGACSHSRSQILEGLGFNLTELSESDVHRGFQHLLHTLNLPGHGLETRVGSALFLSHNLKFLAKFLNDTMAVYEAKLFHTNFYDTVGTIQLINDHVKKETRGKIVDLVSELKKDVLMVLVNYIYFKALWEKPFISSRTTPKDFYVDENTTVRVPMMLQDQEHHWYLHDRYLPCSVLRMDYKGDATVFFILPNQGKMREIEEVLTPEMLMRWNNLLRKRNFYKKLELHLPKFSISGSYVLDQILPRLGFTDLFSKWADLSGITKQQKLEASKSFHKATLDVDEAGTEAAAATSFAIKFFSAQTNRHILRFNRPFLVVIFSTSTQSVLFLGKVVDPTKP
In words: co-IP; HUVECs treated with kallistatin for 4 h; cell lysates precipitated with rabbit anti-kallistatin antibody (control rabbit immunoglobulin) and protein A beads, 4°C overnight; immunoblot; only the target purified. For orientation: In western blotting, separated proteins are transferred to a membrane and probed.

Experiment [2] addresses T1, Recombinant human kallistatin with a his-tag (human). Nature of the experiment: pull-down; his-tagged kallistatin (3 mg) on Ni-NTA affinity beads, incubated with HUVEC membrane proteins (10 mg) for 16 h at 4°C; washed with PBS; eluted fractions on SDS-PAGE; bands identified by MALDI-TOF peptide mass fingerprinting and confirmed by immunoblot; Ni-NTA beads without kallistatin as control; only the target purified.

Experiment [3] concerns the target nucleolin (human (endogenous in HUVEC)) (UniProt P19338). In words: co-IP; kallistatin-nucleolin complex precipitated by an anti-nucleolin antibody and detected with an anti-kallistatin antibody; with increasing concentrations of soluble heparin or a 1,000-fold excess of sodium sulfate; only the binder purified.
For experiment [4] the target is unchanged. In words: flow cytometry on cells; HUVECs transfected with siRNA (nucleolin, integrin β3, MMP2 or scrambled) for 48 h, incubated with kallistatin; cell surface kallistatin detected with anti-kallistatin antibody and Alexa Fluor 647-labeled goat IgG; only the binder purified.

Take “integrin β3 (from UniProt P05106 27-788) (receptor)”: the binding entry in experiment [1] and in experiment [2] was “binds” in each case.

B1: Recombinant human kallistatin with a his-tag (protein, UniProt P29622 21-427)
chain: QLHVEHDGESCSNSSHQQILETGEGSPSLKIAPANADFAFRFYYLIASETPGKNIFFSPLSISAAYAMLSLGACSHSRSQILEGLGFNLTELSESDVHRGFQHLLHTLNLPGHGLETRVGSALFLSHNLKFLAKFLNDTMAVYEAKLFHTNFYDTVGTIQLINDHVKKETRGKIVDLVSELKKDVLMVLVNYIYFKALWEKPFISSRTTPKDFYVDENTTVRVPMMLQDQEHHWYLHDRYLPCSVLRMDYKGDATVFFILPNQGKMREIEEVLTPEMLMRWNNLLRKRNFYKKLELHLPKFSISGSYVLDQILPRLGFTDLFSKWADLSGITKQQKLEASKSFHKATLDVDEAGTEAAAATSFAIKFFSAQTNRHILRFNRPFLVVIFSTSTQSVLFLGKVVDPTKP
With B1, the binding result in experiment [3] and in experiment [4] was “binds” each time.
